Results from patent publication US20170057991A1.
Results are given in words; binding and its absence hold for the method and conditions named. Some results given as binding are weak or reduced against the parent protein; the word gives no strength.

Protein sequences, listed by entry. Tags and fused reporters are not part of them. Residues count along the entry.
UniProt P02768, residues 25-609: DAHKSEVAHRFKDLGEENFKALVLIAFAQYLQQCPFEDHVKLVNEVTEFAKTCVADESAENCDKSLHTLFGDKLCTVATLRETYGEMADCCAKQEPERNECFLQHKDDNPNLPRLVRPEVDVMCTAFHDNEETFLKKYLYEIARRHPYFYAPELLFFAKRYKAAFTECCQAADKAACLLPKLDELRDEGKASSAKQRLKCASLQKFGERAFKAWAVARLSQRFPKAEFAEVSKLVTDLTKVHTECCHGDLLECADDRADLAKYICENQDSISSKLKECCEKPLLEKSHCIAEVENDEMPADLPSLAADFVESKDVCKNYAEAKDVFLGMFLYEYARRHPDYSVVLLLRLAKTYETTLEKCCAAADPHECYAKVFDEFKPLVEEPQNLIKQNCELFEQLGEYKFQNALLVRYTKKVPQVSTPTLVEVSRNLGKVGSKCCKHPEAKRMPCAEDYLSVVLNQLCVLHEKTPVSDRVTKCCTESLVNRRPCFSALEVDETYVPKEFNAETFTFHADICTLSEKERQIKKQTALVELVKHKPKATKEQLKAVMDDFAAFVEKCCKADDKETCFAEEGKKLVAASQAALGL

Biological target: protein (albumin) in blood (UniProt P02768)
Test: SDS-PAGE and fluorescence imaging of supernatants of 5-fold diluted whole blood spiked with 2 uM labelled peptide, before and after heat treatment

Binder: CYIQNCPLG (tetramethyl rhodamine (TMR) label, position not stated) [TMR-oxytocin]
- binding: binds
